Test results published in the supplement of paper PMC6078165.

Key:
Assay in all cases: relative JC-1 red fluorescence (viability) vs pre-drug, monoculture (fraction); higher = more viable cancer cells
Conditions in all cases: coculture fibroblast: none (monoculture)
[1] = system: HCC1143
Description: (§1)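 JC-1 labelled TNBC cells grown in monoculture (density kept equal with unlabelled cancer cells) in 384-well plates in FluoroBrite medium, treated with one of 42 anticancer drugs at 0.1, 1, 10 or 100 uM. JC-1 red fluorescence (mitochondrial integrity, surrogate of apoptotic death) was read by plate reader every 8 h for 72 h. Values are normalised to each well's pre-drug value, with background from alamethicin. The stock of one drug was tenfold lower, so its dose labels may be too high. Monoculture values are repeated alongside each fibroblast plate and are averaged here.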

[2] = system: Hs578T
Description: as §1

[3] = system: MDAMB468
Description: as §1

[4] = system: BT20
Description: as §1

CC(C)C[C@H](NC(=O)[C@H](Cc1ccccc1)NC(=O)c1cnccn1)B(O)O [Bortezomib]
relative JC-1 red fluorescence
Conditions	8 h	16 h	24 h	32 h	40 h	48 h	56 h	64 h	72 h
[1], 0.1 µM	0.743	0.581	0.514	0.458	0.431	0.451	0.461	0.474	0.487
[1], 1 µM	0.774	0.585	0.509	0.486	0.472	0.459	0.448	0.449	0.45
[1], 10 µM	0.7322	0.435	0.378	0.3449	0.331	0.329	0.326	0.326	0.3283
[1], 100 µM	0.737	0.483	0.408	0.355	0.335	0.329	0.317	0.318	0.314
[2], 0.1 µM	0.7706	0.628	0.585	0.4551	0.4361	0.447	0.45	0.475	0.485
[2], 1 µM	0.759	0.636	0.546	0.478	0.437	0.421	0.418	0.423	0.418
[2], 10 µM	0.892	0.648	0.668	0.559	0.541	0.539	0.523	0.54	0.54
[2], 100 µM	0.814	0.601	0.539	0.469	0.4354	0.4231	0.4173	0.4254	0.4195
[3], 0.1 µM	0.782	0.726	0.759	0.758	0.748	0.7907	0.7664	0.77463	0.795
[3], 1 µM	0.856	0.757	0.675	0.569	0.526	0.51	0.483	0.476	0.465
[3], 10 µM	0.815	0.553	0.44837	0.368	0.316	0.319	0.298	0.295	0.294
[3], 100 µM	0.886	0.815	0.696	0.5857	0.5397	0.521	0.497	0.487	0.478
[4], 0.1 µM	0.935	0.879	0.899	0.827	0.808	0.816	0.815	0.811	0.831
[4], 1 µM	0.909	0.82	0.664	0.533	0.429	0.386	0.336	0.321	0.312
[4], 10 µM	0.942	0.758	0.675	0.486	0.413	0.399	0.376	0.37	0.378
[4], 100 µM	0.934	0.882	0.769	0.6083	0.536	0.487	0.442	0.423	0.413

CC[C@]1(O)C[C@@H]2CN(CCc3c([nH]c4ccccc34)[C@@](C(=O)OC)(c3cc4c(cc3OC)N(C)[C@H]3[C@@](O)(C(=O)OC)[C@H](OC(C)=O)[C@]5(CC)C=CCN6CC[C@]43[C@@H]65)C2)C1 [Vinblastine]
relative JC-1 red fluorescence
Conditions	8 h	16 h	24 h	32 h	40 h	48 h	56 h	64 h	72 h
[1], 0.1 µM	0.9254	0.7761	0.753	0.709	0.67	0.6405	0.621	0.612	0.606
[1], 1 µM	0.89909	0.824	0.757	0.709	0.661	0.633	0.602	0.59	0.571
[1], 10 µM	0.889	0.828	0.795	0.742	0.698	0.663	0.631	0.607	0.58
[1], 100 µM	0.678	0.4402	0.275	0.181	0.138	0.111	0.0914	0.0763	0.0671
[2], 0.1 µM	0.8443	0.6691	0.657	0.57	0.534	0.503	0.478	0.469	0.467
[2], 1 µM	0.876	0.758	0.687	0.596	0.565	0.549	0.527	0.532	0.526
[2], 10 µM	0.756	0.648	0.607	0.534	0.494	0.48	0.455	0.441	0.43
[2], 100 µM	0.52	0.206	0.14	0.0773	0.0537	0.0403	0.0327	0.0308	0.025
[3], 0.1 µM	0.9179	0.836	0.789	0.703	0.647	0.615	0.565	0.539	0.522
[3], 1 µM	0.9026	0.856	0.826	0.7793	0.7486	0.7328	0.706	0.692	0.679
[3], 10 µM	0.8829	0.819	0.8007	0.731	0.697	0.661	0.613	0.585	0.552
[3], 100 µM	0.657	0.277	0.0962	0.0439	0.0221	0.0366	0.0149	0.0263	0.0228
[4], 0.1 µM	0.957	0.875	0.841	0.777	0.748	0.717	0.691	0.673	0.658
[4], 1 µM	0.9345	0.8752	0.8086	0.7303	0.688	0.666	0.628	0.604	0.581
[4], 10 µM	0.913	0.8598	0.824	0.767	0.715	0.689	0.6541	0.637	0.613
[4], 100 µM	0.719	0.449	0.234	0.15	0.111	0.0883	0.0673	0.0524	0.0385

The reference is the same well before dosing, and untreated signal decays as well.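 The cancer cells are triple-negative breast cancer lines of basal-like or mesenchymal-like type, grown without fibroblasts. A drop in red signal reflects loss of mitochondrial integrity, a stand-in for apoptotic death.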
